From patent US20160138081
The exact form of at least one protein or probe is not confirmed. Where cells or extracts were used, other partners may take part. No signal at the amounts used counts as a negative. Protein sequences can lack the tags named with them.

Target: T1, 3×FNLDD (bacterial LexA fusion) (UniProt P0A7C2)
T1 sequence (looked up, limits assumed): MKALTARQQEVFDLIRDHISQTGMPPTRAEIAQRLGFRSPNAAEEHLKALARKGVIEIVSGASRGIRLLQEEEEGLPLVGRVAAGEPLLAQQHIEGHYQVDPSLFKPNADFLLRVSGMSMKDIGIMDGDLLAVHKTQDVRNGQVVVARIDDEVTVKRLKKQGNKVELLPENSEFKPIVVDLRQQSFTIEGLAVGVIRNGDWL
Assay: pull-down
Conditions: negative control; anti-FLAG ChIP from crosslinked Ba/F3 cells, Southern blot; protein in cells; protein details: 3×FLAG, NLS

Sequence: TAGGGTTAGGGTTAGGGTT (double strand) [telomeric TTAGGG repeat]
- binding result: no binding
